The values below come from article PMC5684335, “ER-associated degradation regulates Alzheimer’s amyloid pathology and memory function by modulating γ-secretase activity” (Nature Communications, 2017).

Amino acid sequences for entries named in this document (tags omitted). Residues count along the entry.
UniProt Q8CIV2: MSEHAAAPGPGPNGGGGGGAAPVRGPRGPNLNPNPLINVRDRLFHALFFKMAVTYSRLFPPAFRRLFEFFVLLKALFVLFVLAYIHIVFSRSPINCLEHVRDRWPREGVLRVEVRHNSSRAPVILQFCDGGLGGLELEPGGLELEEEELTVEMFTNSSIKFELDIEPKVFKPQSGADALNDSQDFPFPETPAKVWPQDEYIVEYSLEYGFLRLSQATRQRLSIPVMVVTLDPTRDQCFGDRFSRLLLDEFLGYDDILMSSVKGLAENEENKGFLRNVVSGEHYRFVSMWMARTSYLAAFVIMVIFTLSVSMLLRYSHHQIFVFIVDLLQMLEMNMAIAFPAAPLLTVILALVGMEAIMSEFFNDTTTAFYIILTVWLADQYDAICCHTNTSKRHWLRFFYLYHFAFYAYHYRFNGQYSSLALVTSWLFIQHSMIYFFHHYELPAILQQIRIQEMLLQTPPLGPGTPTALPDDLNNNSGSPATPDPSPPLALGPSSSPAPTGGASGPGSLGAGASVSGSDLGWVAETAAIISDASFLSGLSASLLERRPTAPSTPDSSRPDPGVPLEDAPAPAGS
UniProt Q7L5D6: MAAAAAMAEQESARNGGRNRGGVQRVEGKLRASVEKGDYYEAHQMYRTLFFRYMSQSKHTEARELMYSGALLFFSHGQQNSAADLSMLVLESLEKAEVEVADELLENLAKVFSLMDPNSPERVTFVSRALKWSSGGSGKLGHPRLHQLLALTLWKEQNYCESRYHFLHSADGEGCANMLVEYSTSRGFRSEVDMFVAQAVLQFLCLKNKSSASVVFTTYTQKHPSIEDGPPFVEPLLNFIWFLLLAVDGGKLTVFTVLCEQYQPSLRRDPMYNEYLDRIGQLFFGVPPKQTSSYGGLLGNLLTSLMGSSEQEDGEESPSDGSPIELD
UniProt Q92542, residues 34-709: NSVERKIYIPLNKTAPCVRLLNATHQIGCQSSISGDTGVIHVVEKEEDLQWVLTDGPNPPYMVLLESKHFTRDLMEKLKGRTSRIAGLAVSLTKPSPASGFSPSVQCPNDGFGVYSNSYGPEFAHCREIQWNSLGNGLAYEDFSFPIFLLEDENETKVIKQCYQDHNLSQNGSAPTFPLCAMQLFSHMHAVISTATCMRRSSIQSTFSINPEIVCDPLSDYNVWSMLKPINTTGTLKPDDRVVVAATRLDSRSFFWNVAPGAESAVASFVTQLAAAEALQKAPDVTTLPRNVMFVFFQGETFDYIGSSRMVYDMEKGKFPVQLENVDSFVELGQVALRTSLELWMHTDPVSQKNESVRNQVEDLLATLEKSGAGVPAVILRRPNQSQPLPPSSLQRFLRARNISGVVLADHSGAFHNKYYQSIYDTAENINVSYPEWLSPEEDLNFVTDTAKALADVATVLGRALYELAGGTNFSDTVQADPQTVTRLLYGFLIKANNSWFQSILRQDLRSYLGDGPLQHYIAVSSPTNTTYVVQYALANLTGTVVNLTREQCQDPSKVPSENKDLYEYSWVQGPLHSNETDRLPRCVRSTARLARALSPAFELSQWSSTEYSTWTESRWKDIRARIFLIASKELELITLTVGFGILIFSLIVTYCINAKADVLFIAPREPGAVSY
UniProt Q9UKV5: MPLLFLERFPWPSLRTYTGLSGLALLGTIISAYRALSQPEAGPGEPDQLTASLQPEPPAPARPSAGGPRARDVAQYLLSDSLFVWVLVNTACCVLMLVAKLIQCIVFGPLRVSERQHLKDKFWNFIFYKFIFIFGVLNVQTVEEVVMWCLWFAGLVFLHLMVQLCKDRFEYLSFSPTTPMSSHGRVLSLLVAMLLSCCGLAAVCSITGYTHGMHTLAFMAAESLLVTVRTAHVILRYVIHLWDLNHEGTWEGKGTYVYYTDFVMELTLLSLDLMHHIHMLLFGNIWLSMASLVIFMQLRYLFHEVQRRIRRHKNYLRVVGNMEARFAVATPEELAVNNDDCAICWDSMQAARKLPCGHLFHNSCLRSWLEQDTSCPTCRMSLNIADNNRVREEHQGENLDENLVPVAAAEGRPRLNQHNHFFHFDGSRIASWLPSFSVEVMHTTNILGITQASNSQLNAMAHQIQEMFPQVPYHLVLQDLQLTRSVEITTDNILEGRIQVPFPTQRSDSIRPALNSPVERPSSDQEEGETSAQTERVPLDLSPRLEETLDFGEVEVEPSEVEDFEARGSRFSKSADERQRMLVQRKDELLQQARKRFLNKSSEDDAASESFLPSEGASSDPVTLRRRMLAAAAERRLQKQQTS
UniProt Q99942: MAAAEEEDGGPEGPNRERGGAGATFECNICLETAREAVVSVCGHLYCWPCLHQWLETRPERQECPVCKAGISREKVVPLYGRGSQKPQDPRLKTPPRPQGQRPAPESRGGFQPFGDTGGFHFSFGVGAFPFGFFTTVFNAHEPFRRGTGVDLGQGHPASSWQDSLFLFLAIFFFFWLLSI

The target of the assay is Myc-tagged mouse membralin (mouse) (UniProt Q8CIV2). As to the kind of experiment: affinity purification with mass spectrometry; Myc-tagged mouse membralin or empty Myc vector in HEK293T, 3 days; lysates in Digitonin, Triton X-100 or NP40 IP lysis buffer; anti-Myc magnetic beads overnight; LC-MS/MS, MaxQuant, human UniProt database.

Results are given in words; binding and its absence hold for the method and conditions named. Binding seen in cells or lysates may run through a third protein. A yes stands for co-enrichment or nearness to the bait. Other partners may have been found.

Consider “GET4 (endogenous, HEK293T) (from UniProt Q7L5D6 1-327)”, for which the binding result was “binds”.
For “nicastrin (endogenous, HEK293T) (from UniProt Q92542 34-709)”, the binding entry was “binds”.
In the case of “AMFR (endogenous, HEK293T) (from UniProt Q9UKV5 1-643)” it was “binds”; in that of “RNF5 (endogenous, HEK293T) (from UniProt Q99942 1-180)”, “binds”.

B1: TMEM66 (endogenous, HEK293T) (protein, UniProt Q96BY9 31-339)
chain: WNDPDRMLLRDVKALTLHYDRYTTSRRLDPIPQLKCVGGTAGCDSYTPKVIQCQNKGWDGYDVQWECKTDLDIAYKFGKTVVSCEGYESSEDQYVLRGSCGLEYNLDYTELGLQKLKESGKQHGFASFSDYYYKWSSADSCNMSGLITIVVLLGIAFVVYKLFLSDGQYSPPPYSEYPPFSHRYQRFTNSAGPPPPGFKSEFTGPQNTGHGATSGFGSAFTGQQGYENSGPGFWTGLGTGGILGYLFGSNRAATPFSDSWYYPSYPPSYPGTWNRAYSPLHGGSGSYSVCSNSDTKTRTASGYGGTRRR
As for B1, the binding result was “binds”.

B2: FAM8A1 (endogenous, HEK293T) (protein, UniProt Q9UBU6 1-413)
chain: MAEGPEEARGHPPGQDDGGGDHEPVPSLRGPPTTAVPCPRDDPQAEPQAPGRPTAPGLAAAAAADKLEPPRELRKRGEAASGSGAELQEQAGCEAPEAAAPRERPARLSAREYSRQVHEWLWQSYCGYLTWHSGLAAFPAYCSPQPSPQSFPSGGAAVPQAAAPPPPQLGYYNPFYFLSPGAAGPDPRTAAGISTPAPVAGLGPRAPHVQASVRATPVTRVGSAAPSRSPSETGRQAGREYVIPSLAHRFMAEMVDFFILFFIKATIVLSIMHLSGIKDISKFAMHYIIEEIDEDTSMEDLQKMMVVALIYRLLVCFYEIICIWGAGGATPGKFLLGLRVVTCDTSVLIAPSRVLVIPSSNVSITTSTIRALIKNFSIASFFPAFITLLFFQHNRTAYDIVAGTIVVKRNGVR
Take B2: the binding entry is recorded as “binds”.

B3: HERPUD1 (endogenous, HEK293T) (protein, UniProt Q15011 1-391)
chain: MESETEPEPVTLLVKSPNQRHRDLELSGDRGWSVGHLKAHLSRVYPERPRPEDQRLIYSGKLLLDHQCLRDLLPKQEKRHVLHLVCNVKSPSKMPEINAKVAESTEEPAGSNRGQYPEDSSSDGLRQREVLRNLSSPGWENISRPEAAQQAFQGLGPGFSGYTPYGWLQLSWFQQIYARQYYMQYLAATAASGAFVPPPSAQEIPVVSAPAPAPIHNQFPAENQPANQNAAPQVVVNPGANQNLRMNAQGGPIVEEDDEINRDWLDWTYSAATFSVFLSILYFYSSLSRFLMVMGATVVMYLHHVGWFPFRPRPVQNFPNDGPPPDVVNQDPNNNLQEGTDPETEDPNHLPPDRDVLDGEQTSPSFMSTAWLVFKTFFASLLPEGPPAIAN
As to B3, the binding result is recorded as “binds”.

B4: Erlin2 (endogenous, HEK293T) (protein, UniProt O94905 1-339)
chain: MAQLGAVVAVASSFFCASLFSAVHKIEEGHIGVYYRGGALLTSTSGPGFHLMLPFITSYKSVQTTLQTDEVKNVPCGTSGGVMIYFDRIEVVNFLVPNAVYDIVKNYTADYDKALIFNKIHHELNQFCSVHTLQEVYIELFDQIDENLKLALQQDLTSMAPGLVIQAVRVTKPNIPEAIRRNYELMESEKTKLLIAAQKQKVVEKEAETERKKALIEAEKVAQVAEITYGQKVMEKETEKKISEIEDAAFLAREKAKADAECYTAMKIAEANKLKLTPEYLQLMKYKAIASNSKIYFGKDIPNMFMDSAGSVSKQFEGLADKLSFGLEDEPLETATKEN
Turning to B4, the binding entry is on record as “binds”.

B5: ERLEC1 (endogenous, HEK293T) (protein, UniProt Q96DZ1 34-483)
chain: LPQLSDDIPFRVNWPGTEFSLPTTGVLYKEDNYVIMTTAHKEKYKCILPLVTSGDEEEEKDYKGPNPRELLEPLFKQSSCSYRIESYWTYEVCHGKHIRQYHEEKETGQKINIHEYYLGNMLAKNLLFEKEREAEEKEKSNEIPTKNIEGQMTPYYPVGMGNGTPCSLKQNRPRSSTVMYICHPESKHEILSVAEVTTCEYEVVILTPLLCSHPKYRFRASPVNDIFCQSLPGSPFKPLTLRQLEQQEEILRVPFRRNKEEDLQSTKEERFPAIHKSIAIGSQPVLTVGTTHISKLTDDQLIKEFLSGSYCFRGGVGWWKYEFCYGKHVHQYHEDKDSGKTSVVVGTWNQEEHIEWAKKNTARAYHLQDDGTQTVRMVSHFYGNGDICDITDKPRQVTVKLKCKESDSPHAVTVYMLEPHSCQYILGVESPVICKILDTADENGLLSLPN
Turning to B5, the binding result was “binds”.

B6: OS9 (endogenous, HEK293T) (protein, UniProt Q13438 26-667)
chain: GGVGSLNLEELSEMRYGIEILPLPVMGGQSQSSDVVIVSSKYKQRYECRLPAGAIHFQREREEETPAYQGPGIPELLSPMRDAPCLLKTKDWWTYEFCYGRHIQQYHMEDSEIKGEVLYLGYYQSAFDWDDETAKASKQHRLKRYHSQTYGNGSKCDLNGRPREAEVRFLCDEGAGISGDYIDRVDEPLSCSYVLTIRTPRLCPHPLLRPPPSAAPQAILCHPSLQPEEYMAYVQRQADSKQYGDKIIEELQDLGPQVWSETKSGVAPQKMAGASPTKDDSKDSDFWKMLNEPEDQAPGGEEVPAEEQDPSPEAADSASGAPNDFQNNVQVKVIRSPADLIRFIEELKGGTKKGKPNIGQEQPVDDAAEVPQREPEKERGDPERQREMEEEEDEDEDEDEDEDERQLLGEFEKELEGILLPSDRDRLRSEVKAGMERELENIIQETEKELDPDGLKKESERDRAMLALTSTLNKLIKRLEEKQSPELVKKHKKKRVVPKKPPPSPQPTEEDPEHRVRVRVTKLRLGGPNQDLTVLEMKRENPQLKQIEGLVKELLEREGLTAAGKIEIKIVRPWAEGTEEGARWLTDEDTRNLKEIFFNILVPGAEEAQKERQRQKELESNYRRVWGSPGGEGTGDLDEFDF
On to B6, for which the binding result is recorded as “binds”.

B7: Ubac2 (endogenous, HEK293T) (protein, UniProt Q8NBM4 36-344)
chain: HCQKLFVYDLHAVKNDFQIWRLICGRIICLDLKDTFCSSLLIYNFRIFERRYGSRKFASFLLGSWVLSALFDFLLIEAMQYFFGITAASNLPSGFLAPVFALFVPFYCSIPRVQVAQILGPLSITNKTLIYILGLQLFTSGSYIWIVAISGLMSGLCYDSKMFQVHQVLCIPSWMAKFFSWTLEPIFSSSEPTSEARIGMGATLDIQRQQRMELLDRQLMFSQFAQGRRQRQQQGGMINWNRLFPPLRQRQNVNYQGGRQSEPAAPPLEVSEEQVARLMEMGFSRGDALEALRASNNDLNVATNFLLQH
For B7, the binding result was “binds”.
